According to the supplement of paper PMC8166895:
“And” between values parts separate entries of the source, which are not always exact repeats. Equal values may be shown once. Where a name gives a salt, the structure may show the parent alone. The list shows a part of the results. Most entries show no effect beyond the scatter of the controls.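 Differential scanning fluorimetry gave melting temperatures in a one-replicate pilot screen of a library of approved drugs plus clinical or known-target compounds. Hits increasing melting point at least 2 °C were the strongest stabilizers, while negative shifts signify destabilization.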

The molecules below were run on SARS-CoV-2 main protease (Mpro, nsp5) (assay: thermal shift ΔTm of Mpro relative to plate average Tm; higher = stronger thermal stabilization of Mpro (binding)). Settings: 10 µM; protein concentration 1 µM.

Structure (SMILES)	thermal shift ΔTm of Mpro
COC(=O)N[C@H](C(=O)N1CCC[C@H]1c1nc(-c2ccc3c(c2)O[C@@H](c2ccccc2)n2c-3cc3cc(-c4c[nH]c([C@@H]5CCCN5C(=O)[C@@H](NC(=O)OC)C(C)C)n4)ccc32)c[nH]1)C(C)C [Elbasvir]	0.0588 °C
Cc1ccc(NC(=O)c2cccc(N(C)C)c2)cc1NC(=O)c1ccc(O)cc1	0.000703 °C
O=C1NCCc2[nH]c(-c3ccncc3)cc21	0.113 °C
COc1ccc(C2=C(N3CCOCC3)C(=O)N(c3ccc(Cl)c(Cl)c3)C2=O)cc1	0.081 °C
O=C(Nc1cc2cc[nH]c2cn1)c1ccccc1	-0.0908 °C
COc1ccc(S(=O)(=O)Nc2cccnc2Nc2ccc(O)cc2)cc1	0.0982 °C
c1cc2c(cc1[C@H]1OC[C@H]3[C@@H]1CO[C@@H]3c1ccc3c(c1)OCO3)OCO2 [Sesamin]	0.00188 °C
O=C1CC(=O)c2c(Cl)c(Cl)c(Cl)c(Cl)c21	0.592 °C
O=C(O)c1ccc2c(c1)nc(Nc1cccc(Cl)c1)c1ccncc12 [CX-4945 (Silmitasertib)]	0.219 °C
CC1(C)O[C@@H]2C[C@H]3[C@@H]4CCC5=CC(=O)C=C[C@]5(C)[C@H]4[C@@H](O)C[C@]3(C)[C@]2(C(=O)CO)O1 [Desonide]	-0.176 °C
Nc1nonc1C(=Nc1ccc(F)c(Cl)c1)NO	-0.0272 °C
CCN(CC)CCOc1ccc2c(c1)C(=O)c1cc(OCCN(CC)CC)ccc1-2 [Tilorone dihydrochloride]	0.214 °C
NCCCCCNCC12CC3CC(CC(C3)C1)C2 [IEM 1754 dihydrobroMide]	-0.246 °C
Cc1cc(OCCCS(C)(=O)=O)cc(C)c1-c1cccc(COc2ccc3c(c2)OC[C@H]3CC(=O)O)c1	-0.0926 °C and 0.0564 °C
CCN(CC)C(=S)SSC(=S)N(CC)CC [Disulfiram]	-6.99 °C
O=C(CCCCCN1C(=O)c2cccc3cccc(c23)C1=O)NO [Scriptaid]	-0.0612 °C
O=C(O)[C@@H]1CSCN1 [Thioproline]	0.0578 °C
C=C[C@@]1(C)CC(=O)[C@]2(O)[C@@]3(C)[C@@H](O)CCC(C)(C)[C@@H]3[C@H](O)[C@H](OC(C)=O)[C@@]2(C)O1 [Forskolin]	-0.0452 °C
COc1ccc(CN2CCNCC2)c(OC)c1OC [Trimetazidine dihydrochloride]	0.388 °C
COc1cc2/c(=N/c3ccc(Br)cc3F)nc[nH]c2cc1OCC1CCN(C)CC1 [Vandetanib (ZD6474)]	-0.0147 °C
Cn1cc(C[C@@H](N)C(=O)O)c2ccccc21 [Indoximod]	-0.00687 °C
C/C(=C(\CCOP(=O)(O)O)SC(=O)c1ccccc1)N(C=O)Cc1cnc(C)nc1N [Benfotiamine]	0.0742 °C
Cc1noc(-c2ccc(-c3ccc(CC(=O)O)cc3)cc2)c1NC(=O)O[C@H](C)c1ccccc1	-0.0531 °C
CCCCC(CC)COC(=O)C(C#N)=C(c1ccccc1)c1ccccc1 (stereo unspecified) [Octocrilene]	-0.203 °C
Nc1c2c(nc3ccccc13)CCCC2 [Tacrine hydrochloride hydrate]	0.229 °C
O=c1sn(-c2cccc3ccccc23)c(=O)n1Cc1ccccc1 [Tideglusib]	-18.1 °C

Structure (SMILES)	thermal shift ΔTm of Mpro
NC(N)=NCC(=O)O [Guanidoacetic acid]	0.0149 °C
O=c1cc(-c2ccccc2)oc2cc(O)cc(O)c12 [Chrysin]	-0.0275 °C
C[C@H](O)C(=O)[O-].[Na+] [(L)-Sodium lactate]	0.12 °C
COc1ccc2c(c1)c(C1=C(c3c[nH]c4ccccc34)C(=O)NC1=O)cn2CCCN(C)C	-0.033 °C
CC(C)(C)C(=O)C(Oc1ccc(Cl)cc1)n1ccnc1 (stereo unspecified) [Climbazole]	0.129 °C
Cc1ccccc1OCC(O)CO (stereo unspecified) [Mephenesin]	-0.0923 °C
CC(C)N(CCCNC(=O)Nc1ccc(C(C)(C)C)cc1)C[C@H]1O[C@@H](n2cc(Br)c3c(N)ncnc32)[C@H](O)[C@@H]1O	-0.0906 °C
C[C@H](N)[C@H](O)c1cccc(O)c1 [Metaraminol bitartrate]	-0.181 °C
COC(=O)c1ccccc1NC(=O)c1ccc(F)cc1	-0.23 °C
COc1cccc(Oc2c(NS(=O)(=O)c3ccc(C(C)(C)C)cc3)ncnc2OCCO)c1	-0.0408 °C
CCN(CC)CCOC(=O)C(Cc1cccc2ccccc12)CC1CCCO1 (stereo unspecified) [Nafronyl oxalate]	0.0796 °C
Cn1cc(-c2nc(N[C@@H]3CCCC[C@@H]3N)c(F)c3c2C(=O)NC3)cn1 [TAK-659 hydrochloride]	0.0932 °C
CC1(C)S[C@@H]2[C@H](NC(=O)C(C(=O)O)c3ccccc3)C(=O)N2[C@H]1C(=O)O (stereo partly specified) [Carbenicillin disodium]	-0.0804 °C
O=C1CN(/N=C/c2ccc(-c3ccc([N+](=O)[O-])cc3)o2)C(=O)N1 [Dantrolene sodium hemiheptahydrate]	0.0167 °C
O=C1CN(/N=C/c2ccc(-c3ccc([N+](=O)[O-])cc3)o2)C(=O)N1 [Dantrolene sodium salt]	0.0679 °C
Nc1[nH]nc2nnc(-c3c(-c4ccccc4)nn4ccccc34)cc12	-0.162 °C
CCOC(=O)n1ccn(C)c1=S [Carbimazole]	0.00367 °C
CC1(O)CCC(C(C)(C)O)CC1 (stereo unspecified) [Terpin Monohydrate]	-0.0085 °C
COc1cc(N2CCC(N)CC2)ccc1Nc1ncc(Cl)c(-c2c[nH]c3ccccc23)n1	0.531 °C
O=c1cc[nH]c2ccccc12 [4-Hydroxyquinoline]	-0.00671 °C
CC1(C)S[C@@H]2[C@H](NC(=O)[C@H](C(=O)O)c3ccsc3)C(=O)N2[C@H]1C(=O)O [Ticarcillin disodium]	0.284 °C
COc1c/c(=C2\C=c3ccccc3=N2)[nH]/c1=C\c1[nH]c(C)cc1C [Obatoclax Mesylate (GX15-070)]	0.599 °C
O=C(N[C@H]1CN2CCC1CC2)c1ccc(Cl)cc1	0.013 °C
C=C[C@H]1CN2CC[C@H]1C[C@H]2[C@H](OC(=O)OCC)c1ccnc2ccc(OC)cc12 [Euquinine]	0.239 °C
c1cc(-c2cnn3cc(-c4ccc(N5CCNCC5)cc4)cnc23)c2cccnc2c1	-0.145 °C
O=C([O-])CN(CCN(CC(=O)[O-])CC(=O)O)CC(=O)[O-].[Na+].[Na+].[Na+] [Edetate Trisodium]	0.251 °C

Structure (SMILES)	thermal shift ΔTm of Mpro
Cn1c(=O)c(Oc2ccc(F)cc2F)cc2cnc(NC(CCO)CCO)nc21 [Pamapimod]	0.0214 °C
NCCCC[C@@H]1NC(=O)[C@@H](Cc2ccccc2)NC(=O)[C@H](CC(=O)O)NC(=O)CNC(=O)[C@H](CCCN=C(N)N)NC1=O [Cyclo (-RGDfK)]	-0.00264 °C
C[C@@H]1CC(=O)Nc2cccc(-c3ccc4c(c3)c(-c3cnn(C)c3)nn4C)c2N1	-0.0724 °C
CCN(CC)CCNC(=O)c1c(C)[nH]c(/C=C2\C(=O)Nc3ccc(-c4csc(-c5ccccc5)n4)cc32)c1C [Amcasertib]	0.358 °C
COc1cc(C(C)=O)ccc1OCCCN1CCC(c2noc3cc(F)ccc23)CC1 [Iloperidone]	0.374 °C
CCOC(=O)[C@H](CCc1ccccc1)N[C@H]1CCCN2CCC[C@@H](C(=O)O)N2C1=O [Cilazapril Monohydrate]	0.0842 °C
CNC(=O)[C@@H](c1ccccc1)N1CCc2cc(OC)c(OC)cc2[C@@H]1CCc1ccc(C(F)(F)F)cc1 [Almorexant]	-0.12 °C
CNC(=O)[C@@H](c1ccccc1)N1CCc2cc(OC)c(OC)cc2[C@@H]1CCc1ccc(C(F)(F)F)cc1 [Almorexant HCl]	-0.491 °C
CCCC1O[C@@H]2C[C@H]3[C@@H]4CCC5=CC(=O)C=C[C@]5(C)[C@H]4[C@@H](O)C[C@]3(C)[C@]2(C(=O)CO)O1 (stereo partly specified) [Budesonide]	0.146 °C
Cc1cc(O)ccc1Cl [Chlorocresol]	-0.175 °C
COc1ccc(/C=C\c2cc(OC)c(OC)c(OC)c2)cc1O [Combretastatin A4]	-0.204 °C
Cc1cccc(C)c1N(CC(=O)Nc1ccc(-c2ncon2)cc1)C(=O)C1CCS(=O)(=O)CC1 [Amenamevir]	-0.0331 °C
CC1=C(C(=O)Nc2cc3cn[nH]c3cc2F)C(c2ccc(C(F)(F)F)cc2)CC(=O)N1 (stereo unspecified)	0.324 °C
CNC(=O)c1ccccc1Nc1nc(Nc2ccc(N3CCOCC3)cc2OC)ncc1Cl	-0.0819 °C
NCC(CC(=O)O)c1ccccc1 (stereo unspecified) [Phenibut]	-0.108 °C
CCOC(=O)c1ncn2c1CN(C)C(=O)c1cc(F)ccc1-2 [Flumazenil]	0.318 °C
Cc1cc(C)c2c(c1)[C@@H](N(Cc1cc(C(F)(F)F)cc(C(F)(F)F)c1)c1nnn(C)n1)CCCN2C[C@H]1CC[C@H](C(=O)O)CC1	-0.0559 °C
C=CC[C@]1(O)CC[C@H]2[C@@H]3CCC4=CCCC[C@@H]4[C@H]3CC[C@@]21C [Allylestrenol]	0.129 °C
Cn1c(=O)cc(C(=O)Nc2ccc3c(c2)OCCO3)c2ccccc21	0.0238 °C
COC(=O)N[C@H](C(=O)N1CCC[C@H]1c1ncc(-c2ccc(-c3ccc(-c4cnc([C@@H]5CCCN5C(=O)[C@@H](NC(=O)OC)C(C)C)[nH]4)cc3)cc2)[nH]1)C(C)C [Daclatasvir dihydrochloride]	-0.0365 °C
COC(=O)N[C@H](C(=O)N1CCC[C@H]1c1ncc(-c2ccc(-c3ccc(-c4cnc([C@@H]5CCCN5C(=O)[C@@H](NC(=O)OC)C(C)C)[nH]4)cc3)cc2)[nH]1)C(C)C	0.214 °C
CCCCN(Cc1ccc(C(=O)NO)cc1)C(=O)Nc1ccccc1 [Nexturastat A]	0.0549 °C
C#C[C@]1(O)CC[C@H]2[C@@H]3CCc4cc(O)ccc4[C@H]3CC[C@@]21C [Ethinyl Estradiol]	-0.141 °C
CN[C@@H]1[C@@H](O)[C@@H](O[C@@H]2[C@@H](O)[C@H](O[C@H]3O[C@H](CN)[C@@H](O)[C@H](O)[C@H]3O)[C@@H](N)C[C@H]2NC(=O)[C@@H](O)CN)OC[C@]1(C)O [Isepamicin sulfate]	-0.0561 °C

Pulled one by one from the entries so far (3):
Structure (SMILES)	thermal shift ΔTm of Mpro
O=c1sn(-c2cccc3ccccc23)c(=O)n1Cc1ccccc1 [Tideglusib]	-18.1 °C
CCCC1O[C@@H]2C[C@H]3[C@@H]4CCC5=CC(=O)C=C[C@]5(C)[C@H]4[C@@H](O)C[C@]3(C)[C@]2(C(=O)CO)O1 (stereo partly specified) [Budesonide]	0.146 °C
NCCCCCNCC12CC3CC(CC(C3)C1)C2 [IEM 1754 dihydrobroMide]	-0.246 °C
